Data: article doi:10.1101/2021.08.16.456582
Results are given in words; binding and its absence hold for the method and conditions named. Binding seen in cells or lysates may run through a third protein. For part of these data: Binding can be weak; no strength is given.

Sequences of proteins named here, by UniProt entry; tags and fusion partners are left off. A change or cut given only in a name is not applied to a line headed by its entry.
UniProt A0A0B4LF19: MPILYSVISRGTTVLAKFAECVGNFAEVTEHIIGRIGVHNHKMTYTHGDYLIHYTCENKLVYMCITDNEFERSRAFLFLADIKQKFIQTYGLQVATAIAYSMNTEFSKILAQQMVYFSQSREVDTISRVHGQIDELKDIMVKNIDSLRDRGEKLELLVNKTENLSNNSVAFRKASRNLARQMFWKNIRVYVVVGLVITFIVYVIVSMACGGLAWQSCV
UniProt O76742: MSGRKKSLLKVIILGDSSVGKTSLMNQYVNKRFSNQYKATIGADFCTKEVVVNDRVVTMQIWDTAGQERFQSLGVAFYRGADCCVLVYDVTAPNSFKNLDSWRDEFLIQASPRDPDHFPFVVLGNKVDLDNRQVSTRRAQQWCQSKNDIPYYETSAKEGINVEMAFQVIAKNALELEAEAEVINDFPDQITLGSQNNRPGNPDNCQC

Columns and labels:
[1] = target: 3xHA-TBC1D15-17 (Drosophila) (UniProt Q9VPL5); experiment: co-IP
6xMyc-VAMP7 (Drosophila) = experiment: co-IP

Substance | binding [1] | binding (6xMyc-VAMP7 (Drosophila))
6xMyc-VAMP7 (from UniProt A0A0B4LF19) | binds | 
Rab7 (endogenous, adult fly brain) (from UniProt O76742 1-207) | binds | 
3xFlag-Rab7^wt (from UniProt O76742 1-207) |  | no binding
